# Measurements published in the supplement of paper PMC8728848.
# The other results are listed elsewhere or left out.
# How the values were obtained:
# Assay in all cases: glycan array binding signal (z-score within array); higher = stronger binding
# Conditions in all cases: glycan notation: IUPAC condensed, linker removed
# Fuc(a1-2)Gal = biological target: Fuc(a1-2)Gal
# Summary of the method: (§1)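 Glycan array data were curated from 3228 arrays in the Consortium for Functional Glycomics database and kept only where the protein sequence was available. Glycan names were converted to IUPAC-condensed notation, and columns mapping to the same glycan were averaged. The binding signal is a within-array Z-score, averaged across arrays of the same protein sequence at different concentrations or buffers and across linkers. Negative Z-scores can be read as non-binding.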
# Fuc(a1-2)Gal(b1-3)GalNAc = biological target: Fuc(a1-2)Gal(b1-3)GalNAc
# Summary of the method: as §1
# [1] = biological target: Fuc(a1-2)Gal(b1-3)GalNAc(a1-3)[Fuc(a1-2)]Gal(b1-4)Glc
# Summary of the method: as §1
# [2] = biological target: Fuc(a1-2)Gal(b1-3)GalNAc(a1-3)[Fuc(a1-2)]Gal(b1-4)GlcNAc
# Summary of the method: as §1
# [3] = biological target: Fuc(a1-2)Gal(b1-3)GalNAc(b1-3)Gal
# Summary of the method: as §1
# [4] = biological target: Fuc(a1-2)Gal(b1-3)GalNAc(b1-3)Gal(a1-4)Gal(b1-4)Glc
# Summary of the method: as §1
# [5] = biological target: Fuc(a1-2)Gal(b1-3)GalNAc(b1-4)[Neu5Ac(a2-3)]Gal(b1-4)Glc
# Summary of the method: as §1
# Fuc(a1-2)Gal(b1-3)GlcNAc = biological target: Fuc(a1-2)Gal(b1-3)GlcNAc
# Summary of the method: as §1
# [6] = biological target: Fuc(a1-2)Gal(b1-3)GlcNAc(b1-2)Man(a1-3)[Fuc(a1-2)Gal(b1-3)GlcNAc(b1-2)Man(a1-6)]Man(b1-4)GlcNAc(b1-4)GlcNAc
# Summary of the method: as §1
# [7] = biological target: Fuc(a1-2)Gal(b1-3)GlcNAc(b1-2)Man(a1-3)[Fuc(a1-2)Gal(b1-3)GlcNAc(b1-2)Man(a1-6)]Man(b1-4)GlcNAc(b1-4)[Fuc(a1-6)]GlcNAc
# Summary of the method: as §1
# [8] = biological target: Fuc(a1-2)Gal(b1-3)GlcNAc(b1-3)Gal(b1-4)Glc
# Summary of the method: as §1
# [9] = biological target: Fuc(a1-2)Gal(b1-3)GlcNAc(b1-3)GalNAc
# Summary of the method: as §1
# [10] = biological target: Fuc(a1-2)Gal(b1-3)GlcNAc(b1-3)[Fuc(a1-2)Gal(b1-3)GlcNAc(b1-6)]GalNAc
# Summary of the method: as §1
# [11] = biological target: Fuc(a1-2)Gal(b1-3)GlcNAc(b1-3)[Gal(b1-4)GlcNAc(b1-6)]Gal(b1-4)Glc
# Summary of the method: as §1
# [12] = biological target: Fuc(a1-2)Gal(b1-3)GlcNAc(b1-3)[Neu5Ac(a2-6)Gal(b1-4)GlcNAc(b1-6)]Gal(b1-4)Glc
# Summary of the method: as §1
# [13] = biological target: Fuc(a1-2)Gal(b1-3)GlcNAc6S
# Summary of the method: as §1
# [14] = biological target: Fuc(a1-2)Gal(b1-3)[Fuc(a1-4)]GlcNAc
# Summary of the method: as §1
# [15] = biological target: Fuc(a1-2)Gal(b1-3)[Fuc(a1-4)]GlcNAc(b1-2)Man(a1-3)[Fuc(a1-2)Gal(b1-3)[Fuc(a1-4)]GlcNAc(b1-2)Man(a1-3)]Man(b1-4)GlcNAc(b1-4)GlcNAc
# Summary of the method: as §1
# [16] = biological target: Fuc(a1-2)Gal(b1-3)[Fuc(a1-4)]GlcNAc(b1-2)Man(a1-3)[Fuc(a1-2)Gal(b1-3)[Fuc(a1-4)]GlcNAc(b1-2)Man(a1-6)]Man(b1-4)GlcNAc(b1-4)[Fuc(a1-6)]GlcNAc(b1-4)[Fuc(a1-6)]GlcNAc
# Summary of the method: as §1
# [17] = biological target: Fuc(a1-2)Gal(b1-3)[Fuc(a1-4)]GlcNAc(b1-3)[Fuc(a1-3)[Gal(b1-4)]GlcNAc(b1-6)]Gal(b1-4)Glc
# Summary of the method: as §1
# [18] = biological target: Fuc(a1-2)Gal(b1-3)[Fuc(a1-4)]GlcNAc(b1-3)[Gal(b1-4)GlcNAc(b1-6)]Gal(b1-4)Glc
# Summary of the method: as §1
# Fuc(a1-2)Gal(b1-4)Glc = biological target: Fuc(a1-2)Gal(b1-4)Glc
# Summary of the method: as §1
# Fuc(a1-2)Gal(b1-4)Glc6S = biological target: Fuc(a1-2)Gal(b1-4)Glc6S
# Summary of the method: as §1
# Fuc(a1-2)Gal(b1-4)GlcNAc = biological target: Fuc(a1-2)Gal(b1-4)GlcNAc
# Summary of the method: as §1
# [19] = biological target: Fuc(a1-2)Gal(b1-4)GlcNAc(b1-2)Man
# Summary of the method: as §1
# [20] = biological target: Fuc(a1-2)Gal(b1-4)GlcNAc(b1-2)Man(a1-3)[Fuc(a1-2)Gal(b1-4)GlcNAc(b1-2)Man(a1-6)]Man(b1-4)GlcNAc(b1-4)GlcNAc
# Summary of the method: as §1
# [21] = biological target: Fuc(a1-2)Gal(b1-4)GlcNAc(b1-2)Man(a1-3)[Fuc(a1-2)Gal(b1-4)GlcNAc(b1-2)Man(a1-6)]Man(b1-4)GlcNAc(b1-4)[Fuc(a1-6)]GlcNAc
# Summary of the method: as §1
# [22] = biological target: Fuc(a1-2)Gal(b1-4)GlcNAc(b1-2)[Fuc(a1-2)Gal(b1-4)GlcNAc(b1-4)]Man(a1-3)[Fuc(a1-2)Gal(b1-4)GlcNAc(b1-2)Man(a1-6)]Man(b1-4)GlcNAc(b1-4)GlcNAc
# Summary of the method: as §1
# [23] = biological target: Fuc(a1-2)Gal(b1-4)GlcNAc(b1-3)Gal(b1-4)GlcNAc
# Summary of the method: as §1
# [24] = biological target: Fuc(a1-2)Gal(b1-4)GlcNAc(b1-3)Gal(b1-4)GlcNAc(b1-2)Man(a1-3)[Fuc(a1-2)Gal(b1-4)GlcNAc(b1-3)Gal(b1-4)GlcNAc(b1-2)Man(a1-6)]Man(b1-4)GlcNAc(b1-4)GlcNAc
# Summary of the method: as §1
# [25] = biological target: Fuc(a1-2)Gal(b1-4)GlcNAc(b1-3)Gal(b1-4)GlcNAc(b1-3)Gal(b1-4)GlcNAc
# Summary of the method: as §1
# [26] = biological target: Fuc(a1-2)Gal(b1-4)GlcNAc(b1-3)GalNAc
# Summary of the method: as §1
# [27] = biological target: Fuc(a1-2)Gal(b1-4)GlcNAc(b1-3)[Fuc(a1-2)Gal(b1-4)GlcNAc(b1-6)]GalNAc
# Summary of the method: as §1
# [28] = biological target: Fuc(a1-2)Gal(b1-4)GlcNAc(b1-3)[Fuc(a1-3)[Gal(b1-4)]GlcNAc(b1-6)]Gal(b1-4)Glc
# Summary of the method: as §1
# [29] = biological target: Fuc(a1-2)Gal(b1-4)GlcNAc(b1-6)GalNAc
# Summary of the method: as §1
# [30] = biological target: Fuc(a1-2)Gal(b1-4)GlcNAc6S
# Summary of the method: as §1
# [31] = biological target: Fuc(a1-2)Gal(b1-4)[Fuc(a1-3)]GlcNAc
# Summary of the method: as §1
# [32] = biological target: Fuc(a1-2)Gal(b1-4)[Fuc(a1-3)]GlcNAc(b1-2)Man(a1-3)[Fuc(a1-2)Gal(b1-4)[Fuc(a1-3)]GlcNAc(b1-2)Man(a1-6)]Man(b1-4)GlcNAc(b1-4)[Fuc(a1-6)]GlcNAc
# Summary of the method: as §1
# [33] = biological target: Fuc(a1-2)Gal(b1-4)[Fuc(a1-3)]GlcNAc(b1-2)[Fuc(a1-2)Gal(b1-4)[Fuc(a1-3)]GlcNAc(b1-4)]Man(a1-3)[Fuc(a1-2)Gal(b1-4)[Fuc(a1-3)]GlcNAc(b1-2)Man(a1-6)]Man(b1-4)GlcNAc(b1-4)GlcNAc
# Summary of the method: as §1
# [34] = biological target: Fuc(a1-2)Gal(b1-4)[Fuc(a1-3)]GlcNAc(b1-3)Gal(b1-4)[Fuc(a1-3)]GlcNAc
# Summary of the method: as §1
# [35] = biological target: Fuc(a1-2)Gal(b1-4)[Fuc(a1-3)]GlcNAc(b1-3)Gal(b1-4)[Fuc(a1-3)]GlcNAc(b1-3)Gal(b1-4)[Fuc(a1-3)]GlcNAc
# Summary of the method: as §1
# [36] = biological target: Fuc(a1-2)Gal(b1-4)[Fuc(a1-3)]GlcNAc(b1-3)GalNAc
# Summary of the method: as §1
# [37] = biological target: Fuc(a1-2)Gal(b1-4)[Fuc(a1-3)]GlcNAc(b1-3)[Neu5Ac(a2-6)Gal(b1-4)GlcNAc(b1-6)]Gal(b1-4)Glc
# Summary of the method: as §1
# [38] = biological target: Fuc(a1-2)Gal3S(b1-4)GlcNAc
# Summary of the method: as §1
# [39] = biological target: Fuc(a1-2)Gal6S(b1-3)GlcNAc
# Summary of the method: as §1
binder,measurement,setting,value
HFR-3 (Triticum aestivum) (protein) MKGLLLCALALAFAAVTTHAQLQSCPTRCGKQADGMECPNNLCCSKDGYCGLGVDYCSAGAGCQSGACYDNKICGAQANGTLCRNNHCCSSGGRCGYGREYCSNGCQGGPCWADLKCGHLDNGKLCPNNLCCSQYGYCGLGPEFCGTGCQNGACSTDKPCGNKANGAPCTNNYCCSQYGSCGLGKDYCGTGCQNGACN,glycan array binding signal (z-score),Fuc(a1-2)Gal,-0.524
same,glycan array binding signal (z-score),Fuc(a1-2)Gal(b1-3)GalNAc,-0.596
same,glycan array binding signal (z-score),[1],-1.27
same,glycan array binding signal (z-score),[2],-1.27
same,glycan array binding signal (z-score),[3],-0.52
same,glycan array binding signal (z-score),[4],0.317
same,glycan array binding signal (z-score),[5],0.436
same,glycan array binding signal (z-score),Fuc(a1-2)Gal(b1-3)GlcNAc,-0.135
same,glycan array binding signal (z-score),[6],1.72
same,glycan array binding signal (z-score),[7],0.39
same,glycan array binding signal (z-score),[8],-0.404
same,glycan array binding signal (z-score),[9],0.672
same,glycan array binding signal (z-score),[10],-0.006
same,glycan array binding signal (z-score),[11],0.386
same,glycan array binding signal (z-score),[12],-1.35
same,glycan array binding signal (z-score),[13],0.193
same,glycan array binding signal (z-score),[14],0.192
same,glycan array binding signal (z-score),[15],1.44
same,glycan array binding signal (z-score),[16],-0.513
same,glycan array binding signal (z-score),[17],-0.893
same,glycan array binding signal (z-score),[18],-0.266
same,glycan array binding signal (z-score),Fuc(a1-2)Gal(b1-4)Glc,-0.478
same,glycan array binding signal (z-score),Fuc(a1-2)Gal(b1-4)Glc6S,0.283
same,glycan array binding signal (z-score),Fuc(a1-2)Gal(b1-4)GlcNAc,0.484
same,glycan array binding signal (z-score),[19],-0.828
same,glycan array binding signal (z-score),[20],-0.43
same,glycan array binding signal (z-score),[21],-0.7
same,glycan array binding signal (z-score),[22],0.313
same,glycan array binding signal (z-score),[23],-0.482
same,glycan array binding signal (z-score),[24],1.66
same,glycan array binding signal (z-score),[25],-1.6
same,glycan array binding signal (z-score),[26],0.481
same,glycan array binding signal (z-score),[27],1.31
same,glycan array binding signal (z-score),[28],-1.08
same,glycan array binding signal (z-score),[29],0.475
same,glycan array binding signal (z-score),[30],0.021
same,glycan array binding signal (z-score),[31],0.738
same,glycan array binding signal (z-score),[32],1.56
same,glycan array binding signal (z-score),[33],0.772
same,glycan array binding signal (z-score),[34],-1
same,glycan array binding signal (z-score),[35],0.775
same,glycan array binding signal (z-score),[36],-1.14
same,glycan array binding signal (z-score),[37],-0.54
same,glycan array binding signal (z-score),[38],-0.083
same,glycan array binding signal (z-score),[39],-0.314

# Shown bar-delimited: entries from further up.
binder | measurement | setting | value
HFR-3 (Triticum aestivum) (protein) MKGLLLCALALAFAAVTTHAQLQSCPTRCGKQADGMECPNNLCCSKDGYCGLGVDYCSAGAGCQSGACYDNKICGAQANGTLCRNNHCCSSGGRCGYGREYCSNGCQGGPCWADLKCGHLDNGKLCPNNLCCSQYGYCGLGPEFCGTGCQNGACSTDKPCGNKANGAPCTNNYCCSQYGSCGLGKDYCGTGCQNGACN | glycan array binding signal (z-score) | [2] | -1.27
same | glycan array binding signal (z-score) | [3] | -0.52
